# Measured values: article PMC12040169 (PLOS Biology, 2025)
# Some of the results follow.
# Test system: T1, CTL2-GFP (C. trachomatis L2/434/Bu, GFP-expressing)
# T1 construct: L2/434/Bu, GFP-expressing
# Set-up: species or system HeLa; Intracellular C. trachomatis growth in HeLa cells, bulk GFP fluorescence relative to DMSO
# Conditions: bulk GFP, single well; 28.5 h, 10 µM; inhibitor
row,Compound,% of control remaining [%]
1,Cc1nc(N)sc1-c1nnc(SCC(=O)Nc2ccccc2C(F)(F)F)n1C [CBK267359],151.235
2,COc1cncc(C(NC(=O)c2ccc3[nH]nnc3c2)[C@H]2C[C@@H](O)C2)c1 (stereo partly shown) [CBK307049],94.4174
3,CCCCNS(=O)(=O)c1ccccc1[N+](=O)[O-] [CBK261456],100
4,Cc1csc2c(C3CCCN(C(=O)c4cnn(C)c4)C3)nc(C)n12 (stereo not shown) [CBK284595],118.966
5,CC1(C)[N+]([O-])=CC(c2ccc(-c3ccccc3)cc2)=[N+]([O-])C1(C)C [CBK267825],112.813
6,O=C1N[C@]2(CCc3ccccc31)CN(Cc1ccccc1)C[C@H]2CO [CBK284795],107.134
7,Cc1cc(C)n(CC(=O)Nc2ccccc2-n2ccnc2)n1 [CBK283079],92.1455
8,O=C(COc1ccc(Cl)cc1Cl)NC(Cc1ccccc1)C(=O)O (stereo not shown) [CBK261061],100
9,COc1cccc(NC(=O)NCc2ccc(F)cc2)c1 [CBK115590],111.132
10,O=S(=O)(Nc1cccc(-c2cnco2)c1)c1cccc2cccnc12 [CBK067104],99.1677
11,C(=C\c1ccccc1)/CNCCCN1CCOCC1 [CBK278195C],130.23
12,Cc1ccc(Cl)cc1NC(=O)OCCN(C)C [CBK016906],121.314
13,CC1CC(C)CN(C(=O)CN2C3CCC2CC(O)(c2ccco2)C3)C1 (stereo not shown) [CBK284032],111.419
14,CCN(CC(C)C#N)C(=O)c1ccc2ccccc2n1 (stereo not shown) [CBK304801],86.7918
15,Cc1c(C(=O)O)sc(S(=O)(=O)N2CCN(C(=O)Cc3ccsc3)CC2)c1C(=O)O [CBK297134],151.236
16,O=C1NCCc2c1[nH]c1ccc(Cl)cc21 [CBK015755],149.073
17,O=C(N[C@H]1CCN2C(=O)N(c3cccc4nsnc34)C(=O)[C@@H]2C1)c1ccnc(Cl)c1 [CBK289545],130.973
18,CS(=O)(=O)N1CCCc2cc(C(=O)O)ccc21 [CBK287072],109.038
19,Cc1ccc(C(C)C)c(OCC(=O)n2nc(C)cc2C)c1 [CBK058196],90.2685
20,O=C(OCCc1cccnc1)N1CCSCC1 [CBK200160],160.593
21,O=C(Nc1ccc2ccccc2c1)c1ccccc1N(Cc1ccccc1)S(=O)(=O)c1ccccc1 [CBK263751],100.045
22,CC(N)C(=O)NC1CCN(c2nc3c(cc2F)c(=O)c(C(=O)O)cn3C23CC(C2)C3)C1 (stereo not shown) [CBK016632],13.2266
23,CCc1nc2c(OCC3CCCCC3)cccn2c1N(C=O)Cc1ccc(OC)cc1 [CBK147811],115.317
24,CC(=O)N1CCc2cc(C(=O)CN3CCOCC3)ccc21 [CBK291105],128.096
25,Cc1cccnc1C1(O)CCN(C(=O)NCc2ccccc2)CC1 [CBK282293],135.307
26,Cc1nc(-c2ccc(CNC(=O)C(Cc3ccccc3)N3CCCC3)cc2)ccc1C(N)=O (stereo not shown) [CBK286017],118.878
27,O=C(O)c1ccn(-c2ccc(NS(=O)(=O)c3ccc(N4CCCC4=O)cc3)cc2)n1 [CBK298327],152.409

# 4 successive records already listed, quoted:
row,Compound,% of control remaining [%]
20,O=C(OCCc1cccnc1)N1CCSCC1 [CBK200160],160.593
21,O=C(Nc1ccc2ccccc2c1)c1ccccc1N(Cc1ccccc1)S(=O)(=O)c1ccccc1 [CBK263751],100.045
22,CC(N)C(=O)NC1CCN(c2nc3c(cc2F)c(=O)c(C(=O)O)cn3C23CC(C2)C3)C1 (stereo not shown) [CBK016632],13.2266
23,CCc1nc2c(OCC3CCCCC3)cccn2c1N(C=O)Cc1ccc(OC)cc1 [CBK147811],115.317

# Remaining list, next part.

row,Compound,% of control remaining [%]
1,CC(=O)c1ccc(S(=O)(=O)NCc2ccc(C(F)(F)F)cc2)cc1 [CBK044314],123.984
2,CC1=NN(c2ccccc2)C(=O)/C1=C\c1cn(CCC(=O)O)nc1-c1cc2ccccc2o1 [CBK265252],100
3,CCNC(=S)N1CCN(C(=O)c2cccc(OC)c2)CC1 [CBK154778],136.895
4,NC(=O)CCC(=O)N1CCC2(C/C=C/CCOc3ccccc3C(=O)NCCCNC2=O)CC1 [CBK292059],93.3017
5,CCOC(=O)CNS(=O)(=O)c1cc(Cl)sc1Cl [CBK034431],127.655
6,Cc1ccc2cc(CN(Cc3ccc4c(c3)OCO4)Cc3nnnn3Cc3ccco3)c(=O)[nH]c2c1 [CBK108949],114.987
7,Cc1ccccc1CNC(=O)CN(c1cccc(C(F)(F)F)c1)S(=O)(=O)c1ccccc1 [CBK264047],110.029
8,CC(=O)NS(=O)(=O)c1ccc(-c2ccc(/C=C(/C#N)c3nc4ccc(C)cc4[nH]3)o2)cc1 [CBK264771],100
9,O=C(CCCN1C(=O)c2ccccc2C1=O)Nc1ccc(C(=O)O)cc1 [CBK287043],125.093
10,CCn1cc(C(=O)NN)c(=O)c2cc(F)c(NN)cc21 [CBK262735],113.113
11,Cc1nccn1C1CCCN(C(C)C(=O)NC2(C#N)CCCCC2)C1 (stereo not shown) [CBK304194],97.0213
12,COc1ccc(NC(=O)CSc2nnc(C(O)c3ccccc3)n2C)cc1 (stereo not shown) [CBK266053],140.595
13,COc1ccc(OCCN2CCc3ccccc3C2)cc1 [CBK126403],105.72
14,Cc1ccc(N(CC(=O)NCC2CCCO2)S(=O)(=O)c2ccc(Cl)cc2)cc1 (stereo not shown) [CBK269039],179.442
15,CCCCC(c1ccc(Cl)cc1)N(CCN(C)C)c1ccccn1 (stereo not shown) [CBK012315F],80.7107
16,O=C(Oc1ccccc1)N1CCC(n2c(=O)[nH]c3ccccc32)CC1 [CBK149865],100.541
17,CN(C)CCC(O)(c1ccccc1)c1cc2c(cc1Cl)CCC2 (stereo not shown) [CBK010000C],131.665
18,S=C(Nc1nc2c(s1)CCCC2)NC1CC1 [CBK288425],102.529
19,CCn1ccnc1CN1CCCC(CCc2ccccc2F)C1 (stereo not shown) [CBK307173],133.255
20,O=C(C1CCCC1)N1CCC(n2c(=O)oc3ccccc32)CC1 [CBK284349],100.908
21,CCC(C)NC(=O)C(Cc1ccc([N+](=O)[O-])cc1)N1C(=O)c2ccccc2C1=O (stereo not shown) [CBK261278],96.1902
22,CCNC(=O)N1CC2(CCN(C/C=C/c3ccccc3)CC2)c2ccccc21 [CBK144596T],103.883
23,COc1ncc(-c2ccc(N3CCN(c4ccncc4)CC3)nc2)c(OC)n1 [CBK036848],126.581
24,O=C1CSC2(C(=O)Nc3ccccc32)N1c1ccc2ccccc2c1 (stereo not shown) [CBK093461],84.0523
25,CCn1cc(CN(C)C(=S)Nc2cccc(C(C)=O)c2)c(C)n1 [CBK267040],154.283
26,COc1ccc(C2(C(=O)NCc3ccncc3)CCOCC2)cc1 [CBK287991],125.443
27,Cc1cc2c(SCc3cc(O)[nH]n3)ncnc2s1 [CBK269799],97.1216

row,Compound,% of control remaining [%]
1,CCc1nnc(NS(=O)(=O)c2ccc(NC(=O)c3ccccc3[N+](=O)[O-])cc2)s1 [CBK045494],115.551
2,COc1ccc(OC(=O)COc2nc3c(C)cc(C)nc3[nH]2)cc1 [CBK269290],96.7667
3,CC(=O)c1c(C(=O)O)[nH]c(C(=O)O)c1C [CBK263934],125.919
4,NCCCCCCNC(=O)c1c(O)c2ccccc2oc1=O [CBK261071],112.493
5,Oc1c(Br)cc2oc3c(c2c1CNc1ccccc1)CCCC3 [CBK160397],121.66
6,CC(=O)N/C(=C/c1ccccc1)C(=O)NCCC(=O)O [CBK264046],111.261
7,COC[C@@H]1CCCN1S(=O)(=O)c1ccc(C(C)C)cc1 [CBK200045],160.282
8,O=S(=O)(NCc1cccnc1)c1ccc(Cl)c(Cl)c1Cl [CBK264032],127.87
9,Cc1ncsc1CCOc1cccc(C(F)(F)F)n1 [CBK115794],126.096
10,COc1ccccc1CN1CCCC(c2nc(C)n3ccccc23)C1 (stereo not shown) [CBK283026],121.289
11,CN(C)C(=O)c1ccc(-c2cnc(N)c(-c3ccc(O)cc3)n2)cc1 [CBK116686],122.146
12,Cc1cc2oc(C(=O)Nc3sc4c(c3C#N)CCCC4)c(C)c2cc1C [CBK266301],138.444
13,Cc1noc(C)c1CC(=O)NC(CN1CCCCC1)c1ccccc1 (stereo not shown) [CBK281507],137.401
14,CCC(NC(=O)CCOC)c1cn2cccnc2n1 (stereo not shown) [CBK306560],103.484
15,CC(NC(=O)C1CC=CCC1C(=O)O)C1CC2CCC1C2 (stereo not shown) [CBK027112],116.885
16,CCCOc1ccc(C2(CCCCN3CCCC3)C(=O)Oc3ccc(C(C)(C)C)cc32)cc1 (stereo not shown) [CBK017655C],100.365
17,CC(C)(C)OC(=O)NCc1ccc(-c2ccc(Nc3cccnc3)nc2)cc1 [CBK037804],121.196
18,COc1ccc(C2CC(c3cccc(Br)c3)Nc3ncnn32)cc1OC (stereo not shown) [CBK294474],152.744
19,CS(=O)(=O)c1ccc(Cn2ccnc(OC3CCN(C(=O)c4cccc(C#N)c4)CC3)c2=O)cc1 [CBK161810],103.419
20,Cc1nnc(SCC(=O)N2CCCN(c3ccc(F)cc3)CC2)s1 [CBK306908],120.364
21,O=C(CN1C(=O)C2C3C=CC(C3)C2C1=O)NCc1ccco1 (stereo not shown) [CBK265116],134.402
22,O=C(CSc1nnc(-c2ccccc2)n1-c1ccccc1)N/N=C/c1cccc2cccnc12 [CBK262863],108.006
23,CC(Cn1cccn1)NS(=O)(=O)c1ccc(N2CCCC2=O)cc1 (stereo not shown) [CBK305606],128.201
24,O=C(O)c1ccc(CCN2CCCC2)nc1 [CBK034220],100.263
25,Cc1ccc(OCC(=O)Nc2sc(C)c(C)c2C#N)c([N+](=O)[O-])c1 [CBK268162],128.007
